These are yes or no findings as the source states them, for the method shown. In cells and extracts the contact can be indirect. Some binding calls cover weakened binding; strength is not graded here.
Assays:
[1] = biological target: endogenous FOXG1 (Forkhead box G1) (mouse (endogenous in adult mouse hippocampus and E13.5 cortical tissue)) (UniProt Q60987); test: co-IP; protein extracts of adult mouse hippocampus; IP of endogenous FOXG1 (anti-FOXG1) and of DDX5 (anti-DDX5), immunoblot with anti-FOXG1, anti-DDX5, anti-DROSHA, anti-DGCR8
[2] = biological target: FOXG1-HA (Forkhead box G1, HA-tagged) (UniProt Q60987); test: co-IP; HA- or Au1-tagged FOXG1 overexpressed in N2a cells; IP by the tag (anti-HA or anti-Au1), immunoblot with anti-DDX5, anti-DROSHA, anti-DGCR8; mock: FOXG1 with the other tag, untransfected or empty vector
[3] = biological target: FOXG1-Au1 (Forkhead box G1, Au1-tagged) (UniProt Q60987); test: co-IP; N2a cells expressing FOXG1-Au1 (FOXG1-HA as control) fractionated into cytoplasmic, nucleoplasmic and chromatin fractions; Au1-IP from the fractions, immunoblot with anti-Au1, anti-DDX5, anti-DROSHA, anti-DGCR8

Protein sequences, listed by entry. Tags and fused reporters are not part of them.
UniProt Q60987: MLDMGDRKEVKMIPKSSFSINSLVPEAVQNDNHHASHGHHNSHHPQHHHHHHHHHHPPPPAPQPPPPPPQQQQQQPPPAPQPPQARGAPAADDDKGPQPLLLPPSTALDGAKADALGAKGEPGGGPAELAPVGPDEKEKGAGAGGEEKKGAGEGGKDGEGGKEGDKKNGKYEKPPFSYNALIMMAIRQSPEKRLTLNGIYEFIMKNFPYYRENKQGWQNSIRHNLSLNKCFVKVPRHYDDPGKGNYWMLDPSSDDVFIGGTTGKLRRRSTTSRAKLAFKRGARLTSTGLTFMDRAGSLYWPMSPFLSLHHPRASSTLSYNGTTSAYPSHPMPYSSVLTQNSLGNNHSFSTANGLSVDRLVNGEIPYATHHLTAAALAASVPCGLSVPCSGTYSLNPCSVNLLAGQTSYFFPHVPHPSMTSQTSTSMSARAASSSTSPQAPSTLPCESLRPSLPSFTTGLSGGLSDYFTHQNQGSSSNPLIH

Measured: binding

B1: DiGeorge syndrome critical region gene 8 (DGCR8) (protein, UniProt Q9EQM6 1-773)
chain: METYESPSPLPREPAGEAMMENRACPFQVLPHEQSPPPPLQTSSDAEVMDVGSGGDGQSEPPADDPFNFYGASLLSKGSFSKGRLLIDPNCSGHSPRTARHAPAVRKFSPDLKLLKDVKISVSFTESCRSKDRKVLYTGVERSTRPECGQLLSPVSGDVHACPFGGSVGNGVGLGGESADKKDEENELDQEKRVEYAVLDELEDFTDNLELDEEGTGGFTAKAIVQRDRVDEEALNFSYEDDFDNDVDALLEEGLCAPKKRRMEEKYGGDSDHPSDGETSVQPMMTKIKTVLKSRGRPPTEPLPDGWIMTFHNSGVPVYLHRESRVVTWSRPYFLGTGSIRKHDPPLSSIPCLHYKKMKDNEEREQNCDLAPSGEVSPVKPLGRSAELDFPLEEPDSMGGDSGSMDEKDPLGAEAAAGALGQVKAKVEVCKDESVDLEEFRNYLEKRFDFEQVTVKKFRTWAERRQFNREMKRKQAESERPILPANQKLITLSVQDAPTKKEFVINPNGKSEVCILHEYMQRVLKVRPVYNFFECENPSEPFGASVTIDGVTYGSGTASSKKLAKNKAARATLEILIPDFVKQTSEEKPKDSEELEYFNHISIEDSRVYELTSKAGLLSPYQILHECLKRNHGMGDTSIKFEVVPGKNQKSEYVMACGKHTVRGWCKNKRVGKQLASQKILQLLHPHVKNWGSLLRMYGRESSKMVKQETSDKSVIELQQYAKKNRPNLHILSKLQEEMKRLAAEREETRKKPKMSIVASAQPGGEPLCTVDV
binds: all assays above
